Results are given in words; binding and its absence hold for the method and conditions named. Some results given as binding are weak or reduced against the parent protein; the word gives no strength.
T1: rhNR10 (human) (UniProt Q8NI17)
T1 sequence: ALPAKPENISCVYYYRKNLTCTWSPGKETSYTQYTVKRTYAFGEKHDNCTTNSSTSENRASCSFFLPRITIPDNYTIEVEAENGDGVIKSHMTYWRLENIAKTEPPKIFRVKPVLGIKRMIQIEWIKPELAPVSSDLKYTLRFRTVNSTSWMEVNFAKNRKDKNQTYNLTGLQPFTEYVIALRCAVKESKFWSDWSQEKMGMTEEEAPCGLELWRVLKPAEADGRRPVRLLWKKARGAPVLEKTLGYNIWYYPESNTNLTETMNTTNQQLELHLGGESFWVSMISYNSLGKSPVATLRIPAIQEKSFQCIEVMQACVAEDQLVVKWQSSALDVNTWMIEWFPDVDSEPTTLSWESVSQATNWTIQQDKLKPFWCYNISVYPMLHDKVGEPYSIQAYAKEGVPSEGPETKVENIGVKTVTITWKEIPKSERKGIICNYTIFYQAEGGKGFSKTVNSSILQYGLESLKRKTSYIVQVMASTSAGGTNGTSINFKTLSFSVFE


Molecular target: T1, rhNR10 (human)
Assay: SPR (Biacore T100): antibody captured on Protein A, rhNR10 as analyte

Row | Binder | binding
1 | H0L17 (H chain, H0-M58; L chain, L17) (antibody, V domains shown) VH: QVQLVQSGAEVKKPGASVKVSCKASGYTFTGYIMNWVRQAPGQGLEWMGLINPYNGGTSYNQKFKGRVTITADESTSTAYMELSSLRSEDTAVYYCARDGYDDGPYTMDYWGQGTLVTVSS VL: DIQMTQSPSSLSASVGDRVTITCQASEDIYSFVAWYQQKPGKAPKLLIYNAQTEAQGVPSRFSGSGSGTDFTLTISSLQPEDFATYYCQHHYDSPLTFGGGTKVEIKR | binds
2 | H57L17 (H chain, H57-M58; L chain, L17) (antibody, V domains shown) VH: QVQLVQSGAEVKKPGASVKVSCKASGYTFTGYIMNWVRQAPGQGLEWMGLINPYNGGTDYNPQFQGRVTITADESTSTAYMELSSLRSEDTAVYYCARDGYDDGPYTLETWGQGTLVTVSS VL: DIQMTQSPSSLSASVGDRVTITCQASEDIYSFVAWYQQKPGKAPKLLIYNAQTEAQGVPSRFSGSGSGTDFTLTISSLQPEDFATYYCQHHYDSPLTFGGGTKVEIKR | binds
3 | H92L17 (H chain, H92-M58; L chain, L17) (antibody, V domains shown) VH: QVQLVQSGAEVKKPGASVKVSCKASGYTFTGYAMNWVRQAPGQGLEWMGLINPYNGGTDYNPQFQGRVTITADKSTSTAYMELSSLRSEDTAVYYCARDGYDDGPYTLETWGQGTLVTVSS VL: DIQMTQSPSSLSASVGDRVTITCQASEDIYSFVAWYQQKPGKAPKLLIYNAQTEAQGVPSRFSGSGSGTDFTLTISSLQPEDFATYYCQHHYDSPLTFGGGTKVEIKR | binds
4 | H34L17 (H chain, H34-M58; L chain, L17) (antibody, V domains shown) VH: QVQLVQSGAEVKKPGASVKVSCKASGYTFTGYAMNWVRQAPGQGLEWMGLINPYNGGTDYNPQFQDRVTITADESTSTAYMELSSLRSEDTAVYYCARDGYDDGPYTLETWGQGTLVTVSS VL: DIQMTQSPSSLSASVGDRVTITCQASEDIYSFVAWYQQKPGKAPKLLIYNAQTEAQGVPSRFSGSGSGTDFTLTISSLQPEDFATYYCQHHYDSPLTFGGGTKVEIKR | binds
5 | H71L17 (H chain, H71-M58; L chain, L17) (antibody, V domains shown) VH: QVQLVQSGAEVKKPGASVKVSCKASGYTFTGYAMNWVRQAPGQGLEWMGLINPYNGGTDYNPQFQGRVTITADESTSTAYMELSSLRSEDTAVYYCARDGYDDGPYTLETWGQGTLVTVSS VL: DIQMTQSPSSLSASVGDRVTITCQASEDIYSFVAWYQQKPGKAPKLLIYNAQTEAQGVPSRFSGSGSGTDFTLTISSLQPEDFATYYCQHHYDSPLTFGGGTKVEIKR | binds
6 | H46L17 (H chain, H46-M58; L chain, L17) (antibody, V domains shown) VH: QVQLVQSGAEVKKPGASVKVSCKASGYTFTGYAMNWVRQAPGQGLEWMGLINPYNGGTDYNPQFQDRVTITADKSTSTAYMELSSLRSEDTAVYYCARDGYDDGPYTLETWGQGTLVTVSS VL: DIQMTQSPSSLSASVGDRVTITCQASEDIYSFVAWYQQKPGKAPKLLIYNAQTEAQGVPSRFSGSGSGTDFTLTISSLQPEDFATYYCQHHYDSPLTFGGGTKVEIKR | binds
7 | H28L17 (H chain, H28-M58; L chain, L17) (antibody, V domains shown) VH: QVQLVQSGAEVKKPGASVKVSCKASGYTFTGYVLNWVRQAPGQGLEWMGLINPYNGGTDYNPQFQDRVTITADESTSTAYMELSSLRSEDTAVYYCARDGYDDGPYTLETWGQGTLVTVSS VL: DIQMTQSPSSLSASVGDRVTITCQASEDIYSFVAWYQQKPGKAPKLLIYNAQTEAQGVPSRFSGSGSGTDFTLTISSLQPEDFATYYCQHHYDSPLTFGGGTKVEIKR | binds
8 | H78L17 (H chain, H78-M58; L chain, L17) (antibody, V domains shown) VH: QVQLVQSGAEVKKPGASVKVSCKASGYTFTGYIMNWVRQAPGQGLEWMGLINPYNGGTDYNPQFQGRVTITADKSTSTAYMELSSLRSEDTAVYYCARDGYDDGPYTLETWGQGTLVTVSS VL: DIQMTQSPSSLSASVGDRVTITCQASEDIYSFVAWYQQKPGKAPKLLIYNAQTEAQGVPSRFSGSGSGTDFTLTISSLQPEDFATYYCQHHYDSPLTFGGGTKVEIKR | binds
9 | H30L17 (H chain, H30-M58; L chain, L17) (antibody, V domains shown) VH: QVQLVQSGAEVKKPGASVKVSCKASGYTFTGYIMNWVRQAPGQGLEWMGLINPYNGGTDYNPQFQDRVTITADESTSTAYMELSSLRSEDTAVYYCARDGYDDGPYTLETWGQGTLVTVSS VL: DIQMTQSPSSLSASVGDRVTITCQASEDIYSFVAWYQQKPGKAPKLLIYNAQTEAQGVPSRFSGSGSGTDFTLTISSLQPEDFATYYCQHHYDSPLTFGGGTKVEIKR | binds
10 | H44L17 (H chain, H44-M58; L chain, L17) (antibody, V domains shown) VH: QVQLVQSGAEVKKPGASVKVSCKASGYTFTGYIMNWVRQAPGQGLEWMGLINPYNGGTDYNPQFQDRVTITADKSTSTAYMELSSLRSEDTAVYYCARDGYDDGPYTLETWGQGTLVTVSS VL: DIQMTQSPSSLSASVGDRVTITCQASEDIYSFVAWYQQKPGKAPKLLIYNAQTEAQGVPSRFSGSGSGTDFTLTISSLQPEDFATYYCQHHYDSPLTFGGGTKVEIKR | binds
11 | H42L17 (H chain, H42-M58; L chain, L17) (antibody, V domains shown) VH: QVQLVQSGAEVKKPGASVKVSCKASGYTFTGYVLNWVRQAPGQGLEWMGLINPYNGGTDYNPQFQDRVTITADKSTSTAYMELSSLRSEDTAVYYCARDGYDDGPYTLETWGQGTLVTVSS VL: DIQMTQSPSSLSASVGDRVTITCQASEDIYSFVAWYQQKPGKAPKLLIYNAQTEAQGVPSRFSGSGSGTDFTLTISSLQPEDFATYYCQHHYDSPLTFGGGTKVEIKR | binds
12 | H0La134 (H chain, H0-SKSC; L chain, La134) (antibody, V domains shown) VH: QVQLVQSGAEVKKPGASVKVSCKASGYTFTGYIMNWVRQAPGQGLEWMGLINPYNGGTSYNQKFKGRVTITADESTSTAYMELSSLRSEDTAVYYCARDGYDDGPYTMDYWGQGTLVTVSS VL: DIQMTQSPSSLSASVGDRVTITCRTSENIYRFLAWYQQKPGKAPKLLIYNAKTLAKGVPSRFSGSGSGTDFTLTISSLQPEDFATYYCQHHYESPLTFGGGTKVEIKR | binds

More lines, now with the values ahead:

Row | binding | Binder
13 | binds | Ha219L0 (H chain, Ha219-SKSC; L chain, L0) (antibody, V domains shown) VH: QVQLVQSGAEVKKPGASVKVSCKASGYTFTGYIMNWVRQAPGQGLEWMGLINPYNGGTSYNPKFKGRVTITADESTSTAYMELSSLRSEDTAVYYCARDGYDDGPYTMDYWGQGTLVTVSS VL: DIQMTQSPSSLSASVGDRVTITCRTSENIYSFLAWYQQKPGKAPKLLIYNAKTLAKGVPSRFSGSGSGTDFTLTISSLQPEDFATYYCQHHYESPLTFGGGTKVEIKR
14 | binds | Ha111L0 (H chain, Ha111-SKSC; L chain, L0) (antibody, V domains shown) VH: QVQLVQSGAEVKKPGASVKVSCKASGYTFTGYILNWVRQAPGQGLEWMGLINPYNGGTSYNQKFKGRVTITADESTSTAYMELSSLRSEDTAVYYCARDGYDDGPYTMDYWGQGTLVTVSS VL: DIQMTQSPSSLSASVGDRVTITCRTSENIYSFLAWYQQKPGKAPKLLIYNAKTLAKGVPSRFSGSGSGTDFTLTISSLQPEDFATYYCQHHYESPLTFGGGTKVEIKR
15 | binds | Ha103L0 (H chain, Ha103-SKSC; L chain, L0) (antibody, V domains shown) VH: QVQLVQSGAEVKKPGASVKVSCKASGYTFTGYIINWVRQAPGQGLEWMGLINPYNGGTSYNQKFKGRVTITADESTSTAYMELSSLRSEDTAVYYCARDGYDDGPYTMDYWGQGTLVTVSS VL: DIQMTQSPSSLSASVGDRVTITCRTSENIYSFLAWYQQKPGKAPKLLIYNAKTLAKGVPSRFSGSGSGTDFTLTISSLQPEDFATYYCQHHYESPLTFGGGTKVEIKR
16 | binds | H98L50 (H chain, H98-M58; L chain, L50) (antibody, V domains shown) VH: QVQLVQSGAEVKKPGASVKVSCKASGYTFTGYIMNWVRQAPGQGLEWMGLINPYNGGTSYNQQFQDRVTITADKSTSTAYMELSSLRSEDTAVYYCARDGYDDGPYTLETWGQGTLVTVSS VL: DIQMTQSPSSLSASVGDRVTITCQASEDIYSFLAWYQQKPGKAPKLLIYNAQTEAQGVPSRFSGSGSGTDFTLTISSLQPEDFATYYCQHHYDSPLTFGGGTKVEIKR
17 | binds | Hp3Lp15 (H chain, Hp3-SKSC; L chain, Lp15) (antibody, V domains shown) VH: QVQLVQSGAEVKKPGASVKVSCKASGYTFTGYIMNWVRQAPGQGLEWMGLINPYNGGTSYNQQFQDRVTITADESTSTAYMELSSLRSEDTAVYYCARDGYDDGPYTMDYWGQGTLVTVSS VL: DIQMTQSPSSLSASVGDRVTITCQTSEDIYSFLAWYQQKPGKAPKLLIYNAQTEAQGVPSRFSGSGSGTDFTLTISSLQPEDFATYYCQHHYESPLTFGGGTKVEIKR
18 | binds | Ha204L0 (H chain, Ha204-SKSC; L chain, L0) (antibody, V domains shown) VH: QVQLVQSGAEVKKPGASVKVSCKASGYTFTGYIMNWVRQAPGQGLEWMGLINPYNGGTDYNQKFKGRVTITADESTSTAYMELSSLRSEDTAVYYCARDGYDDGPYTMDYWGQGTLVTVSS VL: DIQMTQSPSSLSASVGDRVTITCRTSENIYSFLAWYQQKPGKAPKLLIYNAKTLAKGVPSRFSGSGSGTDFTLTISSLQPEDFATYYCQHHYESPLTFGGGTKVEIKR
19 | binds | Ha101L0 (H chain, Ha101-SKSC; L chain, L0) (antibody, V domains shown) VH: QVQLVQSGAEVKKPGASVKVSCKASGYTFTGYVMNWVRQAPGQGLEWMGLINPYNGGTSYNQKFKGRVTITADESTSTAYMELSSLRSEDTAVYYCARDGYDDGPYTMDYWGQGTLVTVSS VL: DIQMTQSPSSLSASVGDRVTITCRTSENIYSFLAWYQQKPGKAPKLLIYNAKTLAKGVPSRFSGSGSGTDFTLTISSLQPEDFATYYCQHHYESPLTFGGGTKVEIKR
20 | binds | H97L50 (H chain, H97-M58; L chain, L50) (antibody, V domains shown) VH: QVQLVQSGAEVKKPGASVKVSCKASGYTFTGYIMNWVRQAPGQGLEWMGLINPYNGGTSYNQQFQDRVTITADESTSTAYMELSSLRSEDTAVYYCARDGYDDGPYTLETWGQGTLVTVSS VL: DIQMTQSPSSLSASVGDRVTITCQASEDIYSFLAWYQQKPGKAPKLLIYNAQTEAQGVPSRFSGSGSGTDFTLTISSLQPEDFATYYCQHHYDSPLTFGGGTKVEIKR
